Assay in all cases: affinity purification with mass spectrometry; tandem affinity purification of GS-TAP-tagged baits stably expressed in RAW264.7 cells (about 2x10^9 cells); eluates analysed by LC-MS on an LTQ Orbitrap XL; specificity filtered against 150 purifications of unrelated baits
For assay [1], the target named is T1, inducible IκB-kinase (IKK-i) (mouse (endogenous in RAW264.7)) (UniProt Q9R0T8).
T1 sequence: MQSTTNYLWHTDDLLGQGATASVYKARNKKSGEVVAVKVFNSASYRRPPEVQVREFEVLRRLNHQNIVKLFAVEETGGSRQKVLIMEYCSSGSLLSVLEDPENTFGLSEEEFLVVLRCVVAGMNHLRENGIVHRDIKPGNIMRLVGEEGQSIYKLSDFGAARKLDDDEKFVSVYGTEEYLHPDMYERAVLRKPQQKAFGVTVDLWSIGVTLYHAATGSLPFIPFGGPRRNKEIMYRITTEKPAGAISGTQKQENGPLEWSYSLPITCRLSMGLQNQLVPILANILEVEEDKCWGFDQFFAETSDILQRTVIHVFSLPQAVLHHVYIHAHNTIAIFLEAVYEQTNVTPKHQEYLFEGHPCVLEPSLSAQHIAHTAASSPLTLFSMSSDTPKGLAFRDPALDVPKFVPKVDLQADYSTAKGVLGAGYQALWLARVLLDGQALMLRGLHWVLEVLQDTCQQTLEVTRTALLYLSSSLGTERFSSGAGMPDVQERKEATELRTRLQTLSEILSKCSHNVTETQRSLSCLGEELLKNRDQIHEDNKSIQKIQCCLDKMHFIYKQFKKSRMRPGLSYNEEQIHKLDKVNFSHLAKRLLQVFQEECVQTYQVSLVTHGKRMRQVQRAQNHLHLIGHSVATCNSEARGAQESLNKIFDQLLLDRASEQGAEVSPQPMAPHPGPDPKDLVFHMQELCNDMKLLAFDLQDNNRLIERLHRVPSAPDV

The chains behind the UniProt entries cited, without tags or fusion partners.
UniProt Q9WUN2: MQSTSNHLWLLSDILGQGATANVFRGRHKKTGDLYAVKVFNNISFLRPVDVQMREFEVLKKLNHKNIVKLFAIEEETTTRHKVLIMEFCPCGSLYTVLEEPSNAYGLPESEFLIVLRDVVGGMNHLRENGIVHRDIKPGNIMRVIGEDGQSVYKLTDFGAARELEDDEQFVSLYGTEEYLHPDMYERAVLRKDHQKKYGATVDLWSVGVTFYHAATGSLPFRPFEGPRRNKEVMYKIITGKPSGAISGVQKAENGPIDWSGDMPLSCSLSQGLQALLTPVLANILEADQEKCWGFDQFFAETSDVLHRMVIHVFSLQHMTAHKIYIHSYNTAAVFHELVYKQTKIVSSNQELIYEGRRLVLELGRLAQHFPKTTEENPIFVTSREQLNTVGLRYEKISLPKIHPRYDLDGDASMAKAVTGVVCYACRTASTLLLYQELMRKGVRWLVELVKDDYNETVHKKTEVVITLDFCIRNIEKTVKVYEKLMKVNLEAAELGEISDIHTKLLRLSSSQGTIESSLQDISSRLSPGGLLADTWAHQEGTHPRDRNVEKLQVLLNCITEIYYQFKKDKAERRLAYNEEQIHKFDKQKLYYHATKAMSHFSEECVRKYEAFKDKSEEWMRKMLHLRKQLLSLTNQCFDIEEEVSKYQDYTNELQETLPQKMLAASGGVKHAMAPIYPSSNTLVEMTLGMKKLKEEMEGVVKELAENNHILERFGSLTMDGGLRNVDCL
UniProt A2A9T0: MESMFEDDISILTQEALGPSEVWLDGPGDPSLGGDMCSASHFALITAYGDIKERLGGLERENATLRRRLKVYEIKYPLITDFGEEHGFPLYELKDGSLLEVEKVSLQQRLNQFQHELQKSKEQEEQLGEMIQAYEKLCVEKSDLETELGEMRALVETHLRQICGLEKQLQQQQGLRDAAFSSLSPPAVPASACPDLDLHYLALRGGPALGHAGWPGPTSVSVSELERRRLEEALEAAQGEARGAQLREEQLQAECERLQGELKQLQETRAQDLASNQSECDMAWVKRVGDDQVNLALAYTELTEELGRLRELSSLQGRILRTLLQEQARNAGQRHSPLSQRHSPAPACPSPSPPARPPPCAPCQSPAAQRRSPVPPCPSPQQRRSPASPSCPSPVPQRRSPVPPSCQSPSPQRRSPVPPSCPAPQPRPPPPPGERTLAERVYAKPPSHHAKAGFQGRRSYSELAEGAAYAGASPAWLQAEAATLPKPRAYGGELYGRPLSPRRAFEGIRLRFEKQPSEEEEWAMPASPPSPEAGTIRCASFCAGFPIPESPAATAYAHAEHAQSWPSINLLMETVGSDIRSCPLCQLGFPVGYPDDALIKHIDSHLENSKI
UniProt O88351: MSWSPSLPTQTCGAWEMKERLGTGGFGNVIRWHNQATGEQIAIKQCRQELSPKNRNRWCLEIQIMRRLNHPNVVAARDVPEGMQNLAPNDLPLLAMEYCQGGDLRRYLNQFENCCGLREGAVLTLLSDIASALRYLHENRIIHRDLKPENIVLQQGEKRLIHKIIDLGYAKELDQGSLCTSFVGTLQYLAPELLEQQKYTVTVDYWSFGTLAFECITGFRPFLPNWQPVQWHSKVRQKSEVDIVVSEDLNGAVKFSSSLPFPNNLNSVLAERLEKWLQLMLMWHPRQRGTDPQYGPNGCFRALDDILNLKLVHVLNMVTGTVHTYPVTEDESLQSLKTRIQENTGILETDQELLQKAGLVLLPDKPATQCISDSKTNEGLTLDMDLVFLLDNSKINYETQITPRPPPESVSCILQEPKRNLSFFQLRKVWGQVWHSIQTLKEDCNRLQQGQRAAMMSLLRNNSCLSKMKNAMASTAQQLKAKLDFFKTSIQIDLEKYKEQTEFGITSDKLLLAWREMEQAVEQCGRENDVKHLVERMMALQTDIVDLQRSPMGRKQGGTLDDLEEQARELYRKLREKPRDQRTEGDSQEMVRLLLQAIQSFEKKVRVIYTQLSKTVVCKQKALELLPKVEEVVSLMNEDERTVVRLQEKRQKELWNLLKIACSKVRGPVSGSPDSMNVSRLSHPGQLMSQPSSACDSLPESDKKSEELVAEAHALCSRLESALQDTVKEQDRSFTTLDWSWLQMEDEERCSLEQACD
UniProt O88522: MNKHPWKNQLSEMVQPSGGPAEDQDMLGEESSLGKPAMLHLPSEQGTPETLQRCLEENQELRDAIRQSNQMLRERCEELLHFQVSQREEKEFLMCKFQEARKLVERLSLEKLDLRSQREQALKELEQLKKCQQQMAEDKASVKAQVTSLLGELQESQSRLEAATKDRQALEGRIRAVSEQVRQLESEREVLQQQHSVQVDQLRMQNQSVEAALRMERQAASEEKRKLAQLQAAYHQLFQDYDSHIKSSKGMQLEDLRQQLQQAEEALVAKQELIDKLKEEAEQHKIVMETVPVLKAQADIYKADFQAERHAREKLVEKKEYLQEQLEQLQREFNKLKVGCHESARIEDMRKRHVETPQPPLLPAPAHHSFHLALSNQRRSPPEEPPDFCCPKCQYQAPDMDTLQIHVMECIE
UniProt Q60803: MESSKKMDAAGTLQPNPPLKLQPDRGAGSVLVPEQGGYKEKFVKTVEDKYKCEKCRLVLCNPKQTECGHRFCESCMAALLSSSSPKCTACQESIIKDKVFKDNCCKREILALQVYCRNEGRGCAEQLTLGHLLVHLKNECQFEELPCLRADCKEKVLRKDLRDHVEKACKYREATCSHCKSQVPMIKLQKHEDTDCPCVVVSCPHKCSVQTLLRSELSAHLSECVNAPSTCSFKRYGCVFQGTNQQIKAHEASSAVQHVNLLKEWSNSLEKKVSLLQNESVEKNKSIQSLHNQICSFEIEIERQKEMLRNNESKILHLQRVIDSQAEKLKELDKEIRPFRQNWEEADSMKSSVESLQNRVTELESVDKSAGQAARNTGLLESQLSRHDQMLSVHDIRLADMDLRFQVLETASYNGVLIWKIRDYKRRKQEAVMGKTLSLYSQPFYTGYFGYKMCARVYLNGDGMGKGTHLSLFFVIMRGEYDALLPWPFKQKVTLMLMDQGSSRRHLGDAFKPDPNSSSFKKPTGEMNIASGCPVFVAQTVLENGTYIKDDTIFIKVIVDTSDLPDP
UniProt Q62210: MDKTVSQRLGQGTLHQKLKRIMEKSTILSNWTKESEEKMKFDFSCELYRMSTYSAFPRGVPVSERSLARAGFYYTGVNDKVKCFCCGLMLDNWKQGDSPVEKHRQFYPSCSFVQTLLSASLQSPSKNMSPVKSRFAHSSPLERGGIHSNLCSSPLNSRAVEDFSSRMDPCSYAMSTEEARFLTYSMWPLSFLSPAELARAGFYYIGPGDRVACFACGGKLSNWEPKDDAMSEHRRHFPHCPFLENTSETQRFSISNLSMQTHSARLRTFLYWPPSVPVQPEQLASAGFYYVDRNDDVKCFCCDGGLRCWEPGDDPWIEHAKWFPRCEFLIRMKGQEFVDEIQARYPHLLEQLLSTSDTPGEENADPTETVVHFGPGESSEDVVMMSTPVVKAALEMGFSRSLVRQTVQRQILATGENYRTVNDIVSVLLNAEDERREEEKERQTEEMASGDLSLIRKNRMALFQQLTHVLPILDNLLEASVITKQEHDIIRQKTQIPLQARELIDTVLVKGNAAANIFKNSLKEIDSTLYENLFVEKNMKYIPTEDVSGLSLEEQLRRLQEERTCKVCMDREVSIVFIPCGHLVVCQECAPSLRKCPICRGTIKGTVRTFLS
UniProt O08863: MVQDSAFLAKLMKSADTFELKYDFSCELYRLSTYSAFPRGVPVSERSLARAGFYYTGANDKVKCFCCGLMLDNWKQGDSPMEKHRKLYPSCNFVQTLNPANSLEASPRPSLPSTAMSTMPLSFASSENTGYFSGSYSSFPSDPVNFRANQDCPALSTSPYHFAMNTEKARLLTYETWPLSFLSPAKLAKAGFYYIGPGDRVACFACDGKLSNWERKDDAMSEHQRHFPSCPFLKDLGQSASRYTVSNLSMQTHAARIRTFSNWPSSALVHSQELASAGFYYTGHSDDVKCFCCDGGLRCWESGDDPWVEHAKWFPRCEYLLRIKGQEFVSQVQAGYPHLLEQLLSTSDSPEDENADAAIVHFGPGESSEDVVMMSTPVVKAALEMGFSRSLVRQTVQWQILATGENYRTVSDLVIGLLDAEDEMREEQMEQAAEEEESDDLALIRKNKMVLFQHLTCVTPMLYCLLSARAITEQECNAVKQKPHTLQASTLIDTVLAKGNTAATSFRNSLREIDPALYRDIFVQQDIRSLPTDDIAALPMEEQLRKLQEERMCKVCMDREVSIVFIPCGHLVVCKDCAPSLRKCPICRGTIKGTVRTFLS

In assay [2] the target is T2, TANK (mouse (endogenous in RAW264.7)) (UniProt P70347).
T2 sequence: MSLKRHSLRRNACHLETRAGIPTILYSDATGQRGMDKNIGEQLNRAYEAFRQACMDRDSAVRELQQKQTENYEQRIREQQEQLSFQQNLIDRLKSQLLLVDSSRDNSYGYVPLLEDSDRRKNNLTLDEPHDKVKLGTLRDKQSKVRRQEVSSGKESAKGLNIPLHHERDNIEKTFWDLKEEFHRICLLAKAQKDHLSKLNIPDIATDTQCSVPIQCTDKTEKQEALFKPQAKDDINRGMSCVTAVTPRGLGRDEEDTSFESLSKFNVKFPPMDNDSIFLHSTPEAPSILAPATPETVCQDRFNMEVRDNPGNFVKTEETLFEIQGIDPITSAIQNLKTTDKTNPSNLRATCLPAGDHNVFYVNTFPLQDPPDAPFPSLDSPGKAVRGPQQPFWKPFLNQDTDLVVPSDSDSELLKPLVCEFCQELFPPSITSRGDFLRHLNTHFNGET

Assay [3] deals with TANK-binding kinase 1 (TBK1) (murine) (UniProt Q9WUN2).
For assay [4] the target is unchanged. This is another data set of the same source.
Assay [5] concerns the target T1, inducible IκB-kinase (IKK-i) (mouse (endogenous in RAW264.7)). This is another data set of the same source.
Assay [6] concerns the target Sintbad (TBKBP1) (mouse (endogenous in RAW264.7)) (UniProt A2A9T0).
The target of assay [7] is T2, TANK (mouse (endogenous in RAW264.7)). The source holds these as a separate data set.

Eleven molecules from PMC3169550 can be followed below.

Like-named read-outs stand apart in the source and are kept apart here. These are yes or no findings as the source states them, for the method shown. In cells and extracts the contact can be indirect. Here binding means that the protein was enriched with, or labelled near, the bait; the list need not be complete. For part of these data: A no says only that the protein was not detected with the bait.

As to “AI607873 (mouse (endogenous in RAW264.7))”, the binding entry in assay [1] was “binds”.
Turning to “IKK-β (from UniProt O88351 1-757) (enzyme)”, the binding entry in assay [2] is “binds”.
Still for that read-out and setting: the entry for “NEMO (IKK-γ) (from UniProt O88522 1-412)” is “binds”.
In the case of “Sintbad (TBKBP1) (from UniProt A2A9T0 1-611)”, the results for the binding result in assay [2] and in assay [1] were “no binding” and “binds”, respectively.
On to TRAF3 (from UniProt Q60803 1-567), for which the binding result in assay [3] is given as “binds”.
Take “cIAP1 (from UniProt Q62210 1-612) (enzyme)”: the binding entry in assay [3] and in assay [1] was “binds” each time.
Take “cIAP2 (from UniProt O08863 1-600) (enzyme)”: the binding result in assay [3] and in assay [1] was “binds” throughout.

B1: TRAF2 (protein, UniProt P39429 1-501)
chain: MAAASVTSPGSLELLQPGFSKTLLGTRLEAKYLCSACKNILRRPFQAQCGHRYCSFCLTSILSSGPQNCAACVYEGLYEEGISILESSSAFPDNAARREVESLPAVCPNDGCTWKGTLKEYESCHEGLCPFLLTECPACKGLVRLSEKEHHTEQECPKRSLSCQHCRAPCSHVDLEVHYEVCPKFPLTCDGCGKKKIPRETFQDHVRACSKCRVLCRFHTVGCSEMVETENLQDHELQRLREHLALLLSSFLEAQASPGTLNQVGPELLQRCQILEQKIATFENIVCVLNREVERVAVTAEACSRQHRLDQDKIEALSNKVQQLERSIGLKDLAMADLEQKVSELEVSTYDGVFIWKISDFTRKRQEAVAGRTPAIFSPAFYTSRYGYKMCLRVYLNGDGTGRGTHLSLFFVVMKGPNDALLQWPFNQKVTLMLLDHNNREHVIDAFRPDVTSSSFQRPVSDMNIASGCPLFCPVSKMEAKNSYVRDDAIFIKAIVDLTGL
As to B1, the binding result in assay [4] and in assay [5] was “binds” throughout.

B2: TANK (protein, UniProt P70347 1-448)
chain: T2 sequence
As to B2, the binding result in assay [4] is recorded as “binds”; in assay [6], “no binding”; in assay [5], “binds”.

B3: TRAF1 (protein, UniProt P39428 1-409)
chain: MASSSAPDENEFQFGCPPAPCQDPSEPRVLCCTACLSENLRDDEDRICPKCRADNLHPVSPGSPLTQEKVHSDVAEAEIMCPFAGVGCSFKGSPQSMQEHEATSQSSHLYLLLAVLKEWKSSPGSNLGSAPMALERNLSELQLQAAVEATGDLEVDCYRAPCCESQEELALQHLVKEKLLAQLEEKLRVFANIVAVLNKEVEASHLALAASIHQSQLDREHILSLEQRVVELQQTLAQKDQVLGKLEHSLRLMEEASFDGTFLWKITNVTKRCHESVCGRTVSLFSPAFYTAKYGYKLCLRLYLNGDGSGKKTHLSLFIVIMRGEYDALLPWPFRNKVTFMLLDQNNREHAIDAFRPDLSSASFQRPQSETNVASGCPLFFPLSKLQSPKHAYVKDDTMFLKCIVDTSA
For B3, the binding result in assay [4] and in assay [5] was “binds” throughout.

B4: IKK-α (enzyme, UniProt Q60680 1-745)
chain: MERPPGLRPGAGGPWEMRERLGTGGFGNVSLYQHRELDLKIAIKSCRLELSSKNRERWCHEIQIMKKLDHANVVKACDVPEELNFLINDVPLLAMEYCSGGDLRKLLNKPENCCGLKESQILSLLSDIGSGIRYLHENKIIHRDLKPENIVLQDVGGKTIHKIIDLGYAKDVDQGSLCTSFVGTLQYLAPELFENKPYTATVDYWSFGTMVFECIAGYRPFLHHLQPFTWHEKIKKKDPKCIFACEEMTGEVRFSSHLPQPNSLCSLIVEPMESWLQLMLNWDPQQRGGPIDLTLKQPRCFALMDHILNLKIVHILNMTSAKIISFLLPCDESLHSLQSRIERETGINTGSQELLSETGISLDPRKPASQCVLDGVRGCDSYMVYLFDKSKTVYEGPFASRSLSDCVNYIVQDSKIQLPIIQLRKVWAEAVHYVSGLKEDYSRLFQGQRAAMLSLLRYNANLTKMKNTLISASQQLKAKLEFFRKSIQLDLERYSEQMTYGISSEKMLKAWKEMEEKAIHYSEVGVIGYLEDQIMSLHTEIMELQKSPYGRRQGDLMESLEQRAIDLYKQLKHRPPDHLYSDSTEMVKIIVHTVQSQDRVLKELFGHLSKLLGCKQKIIDLLPKVEVALSNIKEADNTVMFMQGKRQKEIWHLLKIACTQSSARSLVGSSLEGTVTPPVSAWLPPTLADREHPLTCVVTPQDGETLAQMIEENLNCLGHLSTIIREANEDQSSSLMSLDWSWLAE
Take B4: in assay [7], the binding result was “binds”.
